In assay [1] the target is T1, Syntaxin-2 (mouse (endogenous in cortical synaptosomes)) (UniProt Q00262).
T1 sequence: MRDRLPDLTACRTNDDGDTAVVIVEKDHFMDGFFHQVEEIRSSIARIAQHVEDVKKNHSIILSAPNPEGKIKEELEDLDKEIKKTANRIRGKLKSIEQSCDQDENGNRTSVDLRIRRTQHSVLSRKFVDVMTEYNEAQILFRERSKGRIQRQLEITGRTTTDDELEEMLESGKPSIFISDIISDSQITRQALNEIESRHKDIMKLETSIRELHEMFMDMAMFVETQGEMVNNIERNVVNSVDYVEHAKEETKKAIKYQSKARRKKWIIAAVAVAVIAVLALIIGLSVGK
Briefly: co-IP; immunoprecipitation of Syntaxin-1, Syntaxin-2 or Snap25 from purified cortical synaptosomal lysates of adult mice (500 ug of total lysate); JNK detected by western blotting. A general note: A western blot detects proteins with antibodies after separation by electrophoresis.

Assay [2] concerns the target c-Jun N-terminal kinase (mouse (endogenous in cortical synaptosomes)). Briefly: co-IP; reverse immunoprecipitation of JNK (anti-JNK) from purified cortical synaptosomal lysates of adult mice (500 ug of total lysate); Syntaxin-1, Syntaxin-2 and Snap25 detected by western blotting.

These are yes or no findings as the source states them, for the method shown. Binding seen in cells or lysates may run through a third protein. A result given as binding can be weak or reduced; the word gives no strength.

With c-Jun N-terminal kinase (enzyme), in assay [1], the binding entry is “binds”.

B1: Syntaxin-2 (protein, UniProt Q00262 1-289)
chain: MRDRLPDLTACRTNDDGDTAVVIVEKDHFMDGFFHQVEEIRSSIARIAQHVEDVKKNHSIILSAPNPEGKIKEELEDLDKEIKKTANRIRGKLKSIEQSCDQDENGNRTSVDLRIRRTQHSVLSRKFVDVMTEYNEAQILFRERSKGRIQRQLEITGRTTTDDELEEMLESGKPSIFISDIISDSQITRQALNEIESRHKDIMKLETSIRELHEMFMDMAMFVETQGEMVNNIERNVVNSVDYVEHAKEETKKAIKYQSKARRKKWIIAAVAVAVIAVLALIIGLSVGK
With B1, the binding result in assay [2] is given as “binds”.

These data come from paper PMC5359460.
